The record followed here is publication PMC6240210.

By UniProt entry, the sequences of proteins in these tests, tags left out. Where a name states a change or a piece, a line headed by the entry shows the natural chain unless it says otherwise.
UniProt P31749: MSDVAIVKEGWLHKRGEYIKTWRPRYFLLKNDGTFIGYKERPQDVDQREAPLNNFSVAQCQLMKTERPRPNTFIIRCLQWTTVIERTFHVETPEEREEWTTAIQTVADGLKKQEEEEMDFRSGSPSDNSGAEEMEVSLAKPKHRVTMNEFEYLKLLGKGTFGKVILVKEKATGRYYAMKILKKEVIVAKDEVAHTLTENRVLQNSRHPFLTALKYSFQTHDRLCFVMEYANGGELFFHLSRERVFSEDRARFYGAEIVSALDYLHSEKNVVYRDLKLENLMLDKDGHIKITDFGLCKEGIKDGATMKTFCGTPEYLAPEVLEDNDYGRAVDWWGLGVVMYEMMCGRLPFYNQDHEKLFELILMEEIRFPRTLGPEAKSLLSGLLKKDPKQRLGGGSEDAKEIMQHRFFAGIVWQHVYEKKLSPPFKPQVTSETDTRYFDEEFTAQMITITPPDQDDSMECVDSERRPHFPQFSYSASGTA
UniProt Q9Y2I7: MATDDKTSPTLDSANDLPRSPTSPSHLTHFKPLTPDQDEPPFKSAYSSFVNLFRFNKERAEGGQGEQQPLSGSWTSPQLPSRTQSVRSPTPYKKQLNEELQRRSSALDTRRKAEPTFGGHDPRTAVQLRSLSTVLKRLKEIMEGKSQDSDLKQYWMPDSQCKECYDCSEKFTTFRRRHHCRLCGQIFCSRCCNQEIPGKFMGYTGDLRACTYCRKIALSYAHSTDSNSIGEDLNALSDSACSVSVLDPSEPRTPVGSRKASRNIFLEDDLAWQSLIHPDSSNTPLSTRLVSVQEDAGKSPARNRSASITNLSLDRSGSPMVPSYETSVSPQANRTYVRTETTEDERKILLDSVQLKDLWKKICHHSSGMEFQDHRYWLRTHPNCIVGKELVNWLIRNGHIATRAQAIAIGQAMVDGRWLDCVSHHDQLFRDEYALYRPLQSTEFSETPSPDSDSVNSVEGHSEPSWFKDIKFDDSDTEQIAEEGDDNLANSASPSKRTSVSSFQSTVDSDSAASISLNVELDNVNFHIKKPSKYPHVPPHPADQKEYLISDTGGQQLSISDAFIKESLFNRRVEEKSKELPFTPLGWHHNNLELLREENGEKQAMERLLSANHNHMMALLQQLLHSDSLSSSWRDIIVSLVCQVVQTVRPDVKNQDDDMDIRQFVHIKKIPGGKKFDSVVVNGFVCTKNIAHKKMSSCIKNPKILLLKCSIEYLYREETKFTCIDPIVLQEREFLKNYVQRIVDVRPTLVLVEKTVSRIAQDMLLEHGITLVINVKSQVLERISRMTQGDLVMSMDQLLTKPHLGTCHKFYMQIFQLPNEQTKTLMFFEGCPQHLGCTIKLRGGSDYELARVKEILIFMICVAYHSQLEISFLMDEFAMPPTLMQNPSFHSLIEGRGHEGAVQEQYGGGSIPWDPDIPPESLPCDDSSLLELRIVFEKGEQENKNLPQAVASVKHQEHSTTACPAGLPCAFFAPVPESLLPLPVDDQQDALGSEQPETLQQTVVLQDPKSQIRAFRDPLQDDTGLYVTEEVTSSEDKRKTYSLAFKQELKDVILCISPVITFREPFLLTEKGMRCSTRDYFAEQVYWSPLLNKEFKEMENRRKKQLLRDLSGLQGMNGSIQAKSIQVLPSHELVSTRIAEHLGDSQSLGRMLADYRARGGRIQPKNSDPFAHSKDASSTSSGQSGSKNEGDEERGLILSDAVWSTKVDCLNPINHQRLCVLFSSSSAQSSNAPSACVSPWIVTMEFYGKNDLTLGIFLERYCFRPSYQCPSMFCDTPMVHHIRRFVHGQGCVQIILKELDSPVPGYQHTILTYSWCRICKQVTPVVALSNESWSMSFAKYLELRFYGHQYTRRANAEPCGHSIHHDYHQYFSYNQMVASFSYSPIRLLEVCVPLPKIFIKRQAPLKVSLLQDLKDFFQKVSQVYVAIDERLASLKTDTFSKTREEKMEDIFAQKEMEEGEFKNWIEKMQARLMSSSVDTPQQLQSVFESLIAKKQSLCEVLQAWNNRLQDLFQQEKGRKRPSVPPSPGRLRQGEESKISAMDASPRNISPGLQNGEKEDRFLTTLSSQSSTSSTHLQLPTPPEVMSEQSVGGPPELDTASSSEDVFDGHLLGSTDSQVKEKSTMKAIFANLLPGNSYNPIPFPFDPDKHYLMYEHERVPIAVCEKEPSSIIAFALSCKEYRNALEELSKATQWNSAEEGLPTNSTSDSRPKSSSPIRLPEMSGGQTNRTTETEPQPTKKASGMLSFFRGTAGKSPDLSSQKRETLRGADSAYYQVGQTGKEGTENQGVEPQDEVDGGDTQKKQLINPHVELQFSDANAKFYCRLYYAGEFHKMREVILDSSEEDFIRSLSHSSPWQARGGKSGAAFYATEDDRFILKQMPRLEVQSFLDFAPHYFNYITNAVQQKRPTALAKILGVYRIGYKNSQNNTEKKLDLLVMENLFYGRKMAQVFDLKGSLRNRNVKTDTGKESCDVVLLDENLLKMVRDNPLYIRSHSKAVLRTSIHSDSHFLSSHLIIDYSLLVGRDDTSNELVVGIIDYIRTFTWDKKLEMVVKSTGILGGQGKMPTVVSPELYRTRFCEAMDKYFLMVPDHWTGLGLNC

Results are given in words; binding and its absence hold for the method and conditions named. In cells and extracts the contact can be indirect. Some binding calls cover weakened binding; strength is not graded here.

The assay concerns the target Akt1 (human (endogenous in MCF-7 and MDA-MB-231)) (UniProt P31749). Put plainly: co-IP; lysates of transfected MCF-7 and MDA-MB-231 cells (20 mM Tris-HCl pH 7.4, 100 mM NaCl, 1% NP40); precipitated with anti-Akt1 antibody and protein A/G agarose at 4 °C, SDS-PAGE.

“S318A mutant PIKfyve (from UniProt Q9Y2I7 1-2098)”: the binding entry is on record as “no binding”.

For “WT Flag-PIKfyve (from UniProt Q9Y2I7 1-2098)”, the binding entry is on record as “binds”.
